This note sets out measurements from paper PMC11524394.

Chains of the proteins cited; added tags and fusions are not shown.
UniProt Q9UM00: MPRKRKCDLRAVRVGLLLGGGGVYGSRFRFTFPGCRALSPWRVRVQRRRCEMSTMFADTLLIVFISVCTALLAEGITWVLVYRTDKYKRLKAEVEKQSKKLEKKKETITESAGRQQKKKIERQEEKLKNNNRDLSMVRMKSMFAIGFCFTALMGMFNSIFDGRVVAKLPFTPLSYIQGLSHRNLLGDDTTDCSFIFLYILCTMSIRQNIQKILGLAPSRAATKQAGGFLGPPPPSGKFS

This assay has as its target Transmembrane and coiled-coil domains 1 (TMCO1) (human (endogenous in DU145 or PC-3)) (UniProt Q9UM00). Description: co-IP; cell lysate incubated overnight with Protein A + G magnetic beads carrying 3 ug antibody or normal IgG (negative control); detection by Western blot; which antibody precipitated and which cell line was used is not stated.

Results are given in words; binding and its absence hold for the method and conditions named. Binding seen in cells or lysates may run through a third protein. Some results given as binding are weak or reduced against the parent protein; the word gives no strength.

As to “Calreticulin (CALR) (from UniProt P27797 18-417)”, the binding result was “binds”.
